Test results: the supplement of paper PMC10849652
The list shows a part of the results.

Amino acid sequences for entries named in this document (tags omitted). A change or cut given only in a name is not applied to a line headed by its entry.
UniProt Q9H4L4: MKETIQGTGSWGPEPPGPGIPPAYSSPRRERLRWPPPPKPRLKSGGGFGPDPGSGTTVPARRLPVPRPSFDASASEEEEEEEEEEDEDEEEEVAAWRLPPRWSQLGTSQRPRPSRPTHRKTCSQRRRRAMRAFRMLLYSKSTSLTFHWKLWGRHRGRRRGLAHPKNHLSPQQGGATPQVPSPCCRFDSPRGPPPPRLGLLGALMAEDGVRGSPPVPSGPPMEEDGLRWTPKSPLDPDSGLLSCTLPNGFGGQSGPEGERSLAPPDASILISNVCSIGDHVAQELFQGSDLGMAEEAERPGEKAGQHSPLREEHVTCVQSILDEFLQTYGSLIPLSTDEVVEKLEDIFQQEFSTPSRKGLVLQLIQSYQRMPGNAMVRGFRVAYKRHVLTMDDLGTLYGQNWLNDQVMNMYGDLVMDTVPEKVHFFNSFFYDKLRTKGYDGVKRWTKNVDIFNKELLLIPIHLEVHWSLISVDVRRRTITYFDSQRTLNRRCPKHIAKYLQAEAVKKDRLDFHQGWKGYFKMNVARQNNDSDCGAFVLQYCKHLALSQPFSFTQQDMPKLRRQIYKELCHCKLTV
UniProt Q9UPU9: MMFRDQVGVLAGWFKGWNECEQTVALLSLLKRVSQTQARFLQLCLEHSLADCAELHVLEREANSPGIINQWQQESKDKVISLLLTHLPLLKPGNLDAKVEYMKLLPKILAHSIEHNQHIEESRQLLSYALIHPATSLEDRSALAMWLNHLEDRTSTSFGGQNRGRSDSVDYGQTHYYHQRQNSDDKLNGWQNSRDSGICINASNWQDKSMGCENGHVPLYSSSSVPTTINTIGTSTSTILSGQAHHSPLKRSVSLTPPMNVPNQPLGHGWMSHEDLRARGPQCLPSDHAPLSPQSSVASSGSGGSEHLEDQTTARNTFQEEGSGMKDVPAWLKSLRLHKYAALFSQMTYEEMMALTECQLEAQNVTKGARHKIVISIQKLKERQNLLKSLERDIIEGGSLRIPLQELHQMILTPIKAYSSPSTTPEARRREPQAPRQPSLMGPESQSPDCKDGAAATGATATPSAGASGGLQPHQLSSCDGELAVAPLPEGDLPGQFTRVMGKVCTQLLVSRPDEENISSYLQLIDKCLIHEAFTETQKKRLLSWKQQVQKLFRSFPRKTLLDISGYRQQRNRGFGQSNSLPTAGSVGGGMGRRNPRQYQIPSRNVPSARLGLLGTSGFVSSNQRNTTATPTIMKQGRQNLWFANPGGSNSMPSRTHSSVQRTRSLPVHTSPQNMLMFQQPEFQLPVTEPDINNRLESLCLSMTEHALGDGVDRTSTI
UniProt Q9H0E3: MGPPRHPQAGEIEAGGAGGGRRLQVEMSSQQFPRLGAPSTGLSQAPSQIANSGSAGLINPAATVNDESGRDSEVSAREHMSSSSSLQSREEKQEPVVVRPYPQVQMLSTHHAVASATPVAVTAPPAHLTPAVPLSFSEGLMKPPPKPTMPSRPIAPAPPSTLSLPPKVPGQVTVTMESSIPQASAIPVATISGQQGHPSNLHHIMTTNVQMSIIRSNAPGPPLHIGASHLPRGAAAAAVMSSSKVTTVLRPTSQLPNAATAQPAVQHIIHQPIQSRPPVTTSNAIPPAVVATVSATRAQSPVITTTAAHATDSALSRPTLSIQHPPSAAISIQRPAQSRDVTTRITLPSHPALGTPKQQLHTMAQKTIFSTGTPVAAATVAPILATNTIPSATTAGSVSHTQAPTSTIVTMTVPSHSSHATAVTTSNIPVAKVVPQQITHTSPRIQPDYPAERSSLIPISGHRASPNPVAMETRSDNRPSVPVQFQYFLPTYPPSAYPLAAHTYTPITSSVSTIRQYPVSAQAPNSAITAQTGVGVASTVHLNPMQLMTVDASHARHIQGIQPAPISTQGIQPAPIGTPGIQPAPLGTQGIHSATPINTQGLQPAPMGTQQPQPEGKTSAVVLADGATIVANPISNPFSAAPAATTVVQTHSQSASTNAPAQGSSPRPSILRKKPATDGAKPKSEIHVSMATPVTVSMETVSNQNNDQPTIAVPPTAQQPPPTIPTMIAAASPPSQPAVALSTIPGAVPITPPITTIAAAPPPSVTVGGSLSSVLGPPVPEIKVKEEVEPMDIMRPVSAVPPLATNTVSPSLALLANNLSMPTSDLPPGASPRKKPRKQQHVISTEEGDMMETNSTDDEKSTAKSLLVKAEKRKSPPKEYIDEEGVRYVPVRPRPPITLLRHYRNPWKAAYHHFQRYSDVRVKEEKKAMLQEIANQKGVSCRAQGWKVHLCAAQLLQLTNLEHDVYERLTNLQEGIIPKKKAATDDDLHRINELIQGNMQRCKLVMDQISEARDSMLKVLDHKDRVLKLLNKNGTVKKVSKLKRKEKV
UniProt Q9C0D9, whole entry, looked up: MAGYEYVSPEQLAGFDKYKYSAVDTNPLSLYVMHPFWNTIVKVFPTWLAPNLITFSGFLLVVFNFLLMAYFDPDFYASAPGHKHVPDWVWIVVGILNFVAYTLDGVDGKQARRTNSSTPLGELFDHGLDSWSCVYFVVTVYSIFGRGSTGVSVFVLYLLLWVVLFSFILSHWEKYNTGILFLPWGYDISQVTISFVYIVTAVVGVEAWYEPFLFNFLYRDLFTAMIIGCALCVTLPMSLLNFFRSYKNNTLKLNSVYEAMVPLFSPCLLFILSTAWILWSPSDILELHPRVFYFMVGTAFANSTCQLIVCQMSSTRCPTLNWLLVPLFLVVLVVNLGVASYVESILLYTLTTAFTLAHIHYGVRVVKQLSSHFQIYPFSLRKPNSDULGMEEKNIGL
UniProt Q9NRG7: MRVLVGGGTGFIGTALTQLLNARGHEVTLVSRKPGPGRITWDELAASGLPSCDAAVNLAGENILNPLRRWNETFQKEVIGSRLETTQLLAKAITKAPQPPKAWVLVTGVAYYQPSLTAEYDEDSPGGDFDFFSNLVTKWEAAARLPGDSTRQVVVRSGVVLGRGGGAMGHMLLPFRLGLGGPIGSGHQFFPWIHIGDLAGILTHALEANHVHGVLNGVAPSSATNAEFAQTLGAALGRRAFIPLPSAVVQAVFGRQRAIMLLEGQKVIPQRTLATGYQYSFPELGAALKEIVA
UniProt Q8WWX9, whole entry, looked up: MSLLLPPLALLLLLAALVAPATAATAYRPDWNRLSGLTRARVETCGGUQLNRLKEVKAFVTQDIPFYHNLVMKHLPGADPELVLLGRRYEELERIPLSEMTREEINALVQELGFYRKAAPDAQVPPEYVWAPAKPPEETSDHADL
UniProt Q14242: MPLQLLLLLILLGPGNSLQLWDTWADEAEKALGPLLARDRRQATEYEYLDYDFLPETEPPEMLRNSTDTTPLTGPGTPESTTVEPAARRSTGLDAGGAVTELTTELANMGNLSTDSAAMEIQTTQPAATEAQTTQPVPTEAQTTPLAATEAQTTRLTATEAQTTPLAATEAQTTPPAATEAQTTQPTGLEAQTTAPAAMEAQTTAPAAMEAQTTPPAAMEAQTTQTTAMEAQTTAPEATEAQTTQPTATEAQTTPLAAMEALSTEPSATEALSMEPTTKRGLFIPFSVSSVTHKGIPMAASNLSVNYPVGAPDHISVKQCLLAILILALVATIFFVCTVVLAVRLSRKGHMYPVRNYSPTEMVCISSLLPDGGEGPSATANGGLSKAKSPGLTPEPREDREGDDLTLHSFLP
UniProt Q99470: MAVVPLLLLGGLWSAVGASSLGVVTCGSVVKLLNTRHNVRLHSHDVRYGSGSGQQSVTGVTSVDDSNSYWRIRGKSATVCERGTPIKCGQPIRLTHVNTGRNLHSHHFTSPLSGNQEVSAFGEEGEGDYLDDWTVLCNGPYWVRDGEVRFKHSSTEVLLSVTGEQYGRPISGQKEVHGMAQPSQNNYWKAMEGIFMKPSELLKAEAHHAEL
UniProt O75845: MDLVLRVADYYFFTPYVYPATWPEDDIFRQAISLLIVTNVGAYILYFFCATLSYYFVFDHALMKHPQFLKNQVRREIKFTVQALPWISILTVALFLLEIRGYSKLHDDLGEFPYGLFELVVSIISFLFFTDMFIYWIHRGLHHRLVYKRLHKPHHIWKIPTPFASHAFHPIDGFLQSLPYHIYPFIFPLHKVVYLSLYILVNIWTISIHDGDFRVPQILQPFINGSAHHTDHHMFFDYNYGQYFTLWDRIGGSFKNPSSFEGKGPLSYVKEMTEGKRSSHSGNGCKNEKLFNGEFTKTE
UniProt P63302, whole entry, looked up: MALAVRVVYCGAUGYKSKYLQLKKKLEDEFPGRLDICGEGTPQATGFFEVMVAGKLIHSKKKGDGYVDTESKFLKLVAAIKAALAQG
UniProt O75556: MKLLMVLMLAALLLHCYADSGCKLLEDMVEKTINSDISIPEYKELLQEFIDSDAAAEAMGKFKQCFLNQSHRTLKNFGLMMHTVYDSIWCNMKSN
UniProt Q92503: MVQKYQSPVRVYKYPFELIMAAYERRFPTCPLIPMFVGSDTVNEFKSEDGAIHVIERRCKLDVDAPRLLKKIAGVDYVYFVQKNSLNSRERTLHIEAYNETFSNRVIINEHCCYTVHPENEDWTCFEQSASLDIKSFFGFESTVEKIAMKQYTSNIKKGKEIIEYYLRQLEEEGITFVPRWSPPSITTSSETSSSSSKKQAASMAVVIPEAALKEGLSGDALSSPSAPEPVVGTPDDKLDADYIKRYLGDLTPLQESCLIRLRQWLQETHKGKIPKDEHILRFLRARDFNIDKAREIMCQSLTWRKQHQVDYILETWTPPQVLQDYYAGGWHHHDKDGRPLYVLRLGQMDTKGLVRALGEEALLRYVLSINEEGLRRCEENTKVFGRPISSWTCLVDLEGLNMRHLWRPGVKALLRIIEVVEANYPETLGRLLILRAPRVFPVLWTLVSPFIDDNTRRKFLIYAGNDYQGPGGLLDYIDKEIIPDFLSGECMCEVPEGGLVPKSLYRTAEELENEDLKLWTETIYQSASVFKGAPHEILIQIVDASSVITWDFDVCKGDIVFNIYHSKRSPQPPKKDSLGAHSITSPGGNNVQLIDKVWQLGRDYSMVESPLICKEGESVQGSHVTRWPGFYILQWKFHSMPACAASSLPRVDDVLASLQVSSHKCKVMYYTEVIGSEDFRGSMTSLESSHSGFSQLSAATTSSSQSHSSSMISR
UniProt Q6SZW1: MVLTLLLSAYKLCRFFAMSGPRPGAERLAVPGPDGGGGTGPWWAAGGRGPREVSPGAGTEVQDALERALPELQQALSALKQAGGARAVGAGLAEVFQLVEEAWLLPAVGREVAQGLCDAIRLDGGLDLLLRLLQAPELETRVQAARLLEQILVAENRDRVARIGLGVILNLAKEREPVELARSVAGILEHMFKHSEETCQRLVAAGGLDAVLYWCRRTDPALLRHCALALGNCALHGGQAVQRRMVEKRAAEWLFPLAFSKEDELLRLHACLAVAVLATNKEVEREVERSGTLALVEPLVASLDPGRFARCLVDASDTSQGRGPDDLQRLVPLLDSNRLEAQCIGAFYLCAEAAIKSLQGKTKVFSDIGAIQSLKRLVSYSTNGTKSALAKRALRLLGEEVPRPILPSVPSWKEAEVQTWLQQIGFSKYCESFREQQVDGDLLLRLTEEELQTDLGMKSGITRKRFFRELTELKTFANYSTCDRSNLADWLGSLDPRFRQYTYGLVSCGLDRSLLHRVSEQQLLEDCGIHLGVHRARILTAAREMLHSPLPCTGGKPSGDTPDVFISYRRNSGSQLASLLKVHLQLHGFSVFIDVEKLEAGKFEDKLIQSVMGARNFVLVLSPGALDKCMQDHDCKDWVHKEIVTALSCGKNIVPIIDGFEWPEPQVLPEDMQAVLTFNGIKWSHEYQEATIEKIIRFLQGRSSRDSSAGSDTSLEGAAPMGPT
UniProt Q5VUM1: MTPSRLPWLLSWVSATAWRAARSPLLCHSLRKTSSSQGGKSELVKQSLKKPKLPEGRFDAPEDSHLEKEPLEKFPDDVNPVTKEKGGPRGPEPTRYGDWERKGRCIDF

The targets below were run with NC(=O)c1cnc(N[C@@H]2CCCC[C@@H]2N)nc1Nc1cccc(-n2nccn2)c1 (assay: log2 fold change, soluble protein after heating vs DMSO (PISA); higher = thermal stabilisation; K562 lysate, 10 uM; active = over 0.2 and 3.5 SD of the protein, either way, in both replicates (recomputed)).
Method in brief: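 Log-two fold change in thermal stability relative to solvent controls is reported from duplicates. For each sample, crude K562 extract from dounce-homogenised pellets in PBS pH 7.4 with 1 mM MgCl2, at 1 mg/mL protein, was treated with 10 μM compound for 30 min. Aliquots heated for 3 min across 48°C-58°C were pooled, brought to 0.5% NP-40 at 4°C and cleared at 21,000xg for 90 min. The supernatant was quantified by TMTpro 16plex LC-MS/MS with channel sums equalised.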

log2 fold change, inactive:
SENP3 (UniProt Q9H4L4) 0.38
SAMD4A (UniProt Q9UPU9) -0.023
SAP130 isoform 3 (UniProt Q9H0E3) 0.038
SELENOI (UniProt Q9C0D9) 0.024
SDR39U1 (UniProt Q9NRG7) 0
SELENOM (UniProt Q8WWX9) -0.087
SELPLG isoform 2 (UniProt Q14242) -0.029
SDF2 (UniProt Q99470) -0.182
SC5D (UniProt O75845) -0.005
SELENOW (UniProt P63302) 0.048
SCGB2A1 (UniProt O75556) 0.101
SEC14L1 isoform 2 (UniProt Q92503) 0.06
SARM1 (UniProt Q6SZW1) -0.07
SAE1 (UniProt M0R286) 0.089
SDHAF4 (UniProt Q5VUM1) 0.001

Two successive records from above, quoted:
log2 fold change, inactive:
SARM1 (UniProt Q6SZW1) -0.07
SAE1 (UniProt M0R286) 0.089
